The other results are listed elsewhere or left out.
What was measured:
Test in all cases: log2 fold change, soluble protein after heating vs DMSO (PISA); higher = thermal stabilisation; K562 lysate, 10 uM; active = over 0.2 and 3.5 SD of the protein, either way, in both replicates (recomputed)
erlotinib = compound: C#Cc1cccc(Nc2ncnc3cc(OCCOC)c(OCCOC)cc23)c1 [erlotinib]
Method in brief: (§1)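 Values give the log-two fold change in thermal stability against solvent controls, from duplicates. Crude K562 extract at 1 mg/mL protein, made by dounce homogenisation in PBS pH 7.4 with 1 mM MgCl2, was treated with 10 μM compound for 30 min. After 3 min heating across 48°C-58°C, aliquots were pooled, adjusted to 0.5% NP-40 at 4°C and centrifuged at 21,000xg for 90 min. The supernatant was measured by TMTpro 16plex LC-MS/MS with channel sums equalised.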

Amino acid sequences for entries named in this document (tags omitted). A change or cut given only in a name is not applied to a line headed by its entry.
UniProt Q8NHH9: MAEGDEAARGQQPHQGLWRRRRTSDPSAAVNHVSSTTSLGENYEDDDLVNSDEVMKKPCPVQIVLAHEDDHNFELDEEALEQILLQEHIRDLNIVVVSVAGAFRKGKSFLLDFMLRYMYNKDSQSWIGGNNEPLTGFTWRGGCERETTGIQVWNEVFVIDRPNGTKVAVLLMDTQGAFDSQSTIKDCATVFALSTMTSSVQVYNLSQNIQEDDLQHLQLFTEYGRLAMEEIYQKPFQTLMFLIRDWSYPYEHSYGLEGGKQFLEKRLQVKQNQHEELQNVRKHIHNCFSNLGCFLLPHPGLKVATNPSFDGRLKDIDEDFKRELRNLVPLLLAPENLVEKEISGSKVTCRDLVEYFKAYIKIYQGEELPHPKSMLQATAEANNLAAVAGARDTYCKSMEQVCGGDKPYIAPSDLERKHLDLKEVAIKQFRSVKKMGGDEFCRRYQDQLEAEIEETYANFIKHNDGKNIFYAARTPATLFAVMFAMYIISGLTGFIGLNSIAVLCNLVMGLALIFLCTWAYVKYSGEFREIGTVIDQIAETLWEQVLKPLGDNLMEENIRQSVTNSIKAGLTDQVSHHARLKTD
UniProt O75947: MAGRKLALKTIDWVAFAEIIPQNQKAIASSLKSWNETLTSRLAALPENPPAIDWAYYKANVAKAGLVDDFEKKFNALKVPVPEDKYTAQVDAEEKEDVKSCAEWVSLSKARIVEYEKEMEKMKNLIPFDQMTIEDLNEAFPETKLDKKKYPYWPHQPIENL
UniProt P56378: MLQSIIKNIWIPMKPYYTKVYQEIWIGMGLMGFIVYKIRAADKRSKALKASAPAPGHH
UniProt O75348, whole entry, looked up: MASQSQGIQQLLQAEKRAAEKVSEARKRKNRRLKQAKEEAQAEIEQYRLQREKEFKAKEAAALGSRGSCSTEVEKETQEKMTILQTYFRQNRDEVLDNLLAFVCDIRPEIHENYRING
UniProt Q9Y487, whole entry, looked up: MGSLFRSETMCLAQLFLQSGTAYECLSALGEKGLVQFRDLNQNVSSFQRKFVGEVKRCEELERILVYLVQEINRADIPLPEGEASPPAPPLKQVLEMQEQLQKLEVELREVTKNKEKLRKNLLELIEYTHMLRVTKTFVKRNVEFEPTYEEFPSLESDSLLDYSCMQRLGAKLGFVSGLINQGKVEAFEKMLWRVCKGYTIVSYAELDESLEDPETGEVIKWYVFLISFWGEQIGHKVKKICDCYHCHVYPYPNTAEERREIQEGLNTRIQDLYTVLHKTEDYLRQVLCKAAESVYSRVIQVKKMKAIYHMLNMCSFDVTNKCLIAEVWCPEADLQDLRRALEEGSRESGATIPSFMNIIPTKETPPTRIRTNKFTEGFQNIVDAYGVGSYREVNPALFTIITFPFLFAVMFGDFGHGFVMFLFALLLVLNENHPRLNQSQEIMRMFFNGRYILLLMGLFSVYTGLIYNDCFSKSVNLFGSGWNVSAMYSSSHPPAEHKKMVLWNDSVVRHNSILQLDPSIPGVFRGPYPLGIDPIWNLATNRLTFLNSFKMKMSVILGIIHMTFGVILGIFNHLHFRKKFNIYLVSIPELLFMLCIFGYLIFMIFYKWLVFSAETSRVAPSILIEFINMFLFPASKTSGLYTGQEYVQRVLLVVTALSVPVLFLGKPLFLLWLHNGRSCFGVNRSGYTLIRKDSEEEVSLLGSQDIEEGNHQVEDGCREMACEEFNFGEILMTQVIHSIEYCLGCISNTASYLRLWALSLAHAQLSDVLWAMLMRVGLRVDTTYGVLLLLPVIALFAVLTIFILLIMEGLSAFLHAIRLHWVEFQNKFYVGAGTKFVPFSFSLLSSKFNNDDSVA
UniProt Q15904, whole entry, looked up: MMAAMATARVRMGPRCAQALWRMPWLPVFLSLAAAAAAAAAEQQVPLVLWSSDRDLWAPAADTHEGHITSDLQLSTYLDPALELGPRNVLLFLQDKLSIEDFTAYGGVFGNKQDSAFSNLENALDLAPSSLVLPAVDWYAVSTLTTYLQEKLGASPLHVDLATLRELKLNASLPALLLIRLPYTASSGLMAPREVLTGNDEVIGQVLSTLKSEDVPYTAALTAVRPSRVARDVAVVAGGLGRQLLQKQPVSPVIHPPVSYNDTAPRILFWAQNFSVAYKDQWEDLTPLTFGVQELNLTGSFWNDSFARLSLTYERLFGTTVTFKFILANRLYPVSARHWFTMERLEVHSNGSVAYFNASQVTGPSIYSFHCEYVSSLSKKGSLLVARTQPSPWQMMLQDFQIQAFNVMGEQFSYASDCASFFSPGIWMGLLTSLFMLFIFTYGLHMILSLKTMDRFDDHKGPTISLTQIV
UniProt Q9NY97: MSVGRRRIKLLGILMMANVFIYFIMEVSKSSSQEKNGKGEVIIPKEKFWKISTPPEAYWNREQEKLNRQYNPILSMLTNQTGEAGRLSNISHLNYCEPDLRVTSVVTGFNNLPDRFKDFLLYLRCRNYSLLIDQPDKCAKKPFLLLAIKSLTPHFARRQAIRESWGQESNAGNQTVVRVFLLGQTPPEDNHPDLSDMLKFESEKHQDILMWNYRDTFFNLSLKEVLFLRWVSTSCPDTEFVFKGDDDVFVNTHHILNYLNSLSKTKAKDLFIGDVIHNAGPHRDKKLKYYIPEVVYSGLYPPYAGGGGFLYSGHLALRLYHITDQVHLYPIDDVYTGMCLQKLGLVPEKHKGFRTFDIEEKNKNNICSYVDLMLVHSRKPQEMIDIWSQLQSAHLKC
UniProt Q8WWM7: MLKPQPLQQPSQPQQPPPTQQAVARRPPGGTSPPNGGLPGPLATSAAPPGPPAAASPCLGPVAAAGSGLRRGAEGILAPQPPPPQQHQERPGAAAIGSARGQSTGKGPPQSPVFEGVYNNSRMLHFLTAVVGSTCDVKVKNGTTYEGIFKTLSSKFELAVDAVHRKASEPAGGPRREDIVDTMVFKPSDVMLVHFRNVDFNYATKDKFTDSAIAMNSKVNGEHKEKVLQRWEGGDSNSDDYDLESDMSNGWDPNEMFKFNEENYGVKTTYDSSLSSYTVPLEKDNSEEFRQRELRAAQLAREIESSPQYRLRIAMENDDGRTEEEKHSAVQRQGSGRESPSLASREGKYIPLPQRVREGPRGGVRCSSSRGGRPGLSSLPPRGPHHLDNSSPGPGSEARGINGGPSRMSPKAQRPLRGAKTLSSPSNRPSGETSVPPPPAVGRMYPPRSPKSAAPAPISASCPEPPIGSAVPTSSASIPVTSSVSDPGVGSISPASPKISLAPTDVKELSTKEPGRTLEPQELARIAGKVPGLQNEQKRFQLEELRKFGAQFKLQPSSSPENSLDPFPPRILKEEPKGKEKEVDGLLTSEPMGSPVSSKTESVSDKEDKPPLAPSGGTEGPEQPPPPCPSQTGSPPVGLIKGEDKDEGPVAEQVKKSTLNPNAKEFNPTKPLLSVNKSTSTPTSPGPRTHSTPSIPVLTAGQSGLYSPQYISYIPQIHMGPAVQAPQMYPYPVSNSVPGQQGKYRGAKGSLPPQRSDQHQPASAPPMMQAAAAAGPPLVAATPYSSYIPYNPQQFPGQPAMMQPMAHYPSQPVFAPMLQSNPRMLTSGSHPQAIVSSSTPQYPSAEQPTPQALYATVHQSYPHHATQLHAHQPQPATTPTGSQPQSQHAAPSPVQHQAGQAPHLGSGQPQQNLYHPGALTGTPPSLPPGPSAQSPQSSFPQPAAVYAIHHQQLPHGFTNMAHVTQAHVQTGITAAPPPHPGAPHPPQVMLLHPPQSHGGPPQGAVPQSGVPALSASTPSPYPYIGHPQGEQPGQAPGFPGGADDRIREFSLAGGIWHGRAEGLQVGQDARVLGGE
UniProt O75143: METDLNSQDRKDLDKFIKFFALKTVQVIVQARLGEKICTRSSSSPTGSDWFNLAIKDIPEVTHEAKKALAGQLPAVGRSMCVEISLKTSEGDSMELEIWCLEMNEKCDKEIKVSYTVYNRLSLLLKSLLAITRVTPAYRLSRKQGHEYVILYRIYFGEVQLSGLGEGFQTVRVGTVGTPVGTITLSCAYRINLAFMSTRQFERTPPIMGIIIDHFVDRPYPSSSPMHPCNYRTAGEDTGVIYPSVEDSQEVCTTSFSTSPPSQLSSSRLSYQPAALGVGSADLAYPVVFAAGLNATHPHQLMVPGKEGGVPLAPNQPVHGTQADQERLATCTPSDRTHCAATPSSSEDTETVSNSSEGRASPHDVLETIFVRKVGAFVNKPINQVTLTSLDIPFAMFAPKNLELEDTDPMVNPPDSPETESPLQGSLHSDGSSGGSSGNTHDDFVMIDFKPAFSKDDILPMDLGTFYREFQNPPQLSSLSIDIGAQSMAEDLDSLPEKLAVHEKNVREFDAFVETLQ
UniProt Q9UI12, whole entry, looked up: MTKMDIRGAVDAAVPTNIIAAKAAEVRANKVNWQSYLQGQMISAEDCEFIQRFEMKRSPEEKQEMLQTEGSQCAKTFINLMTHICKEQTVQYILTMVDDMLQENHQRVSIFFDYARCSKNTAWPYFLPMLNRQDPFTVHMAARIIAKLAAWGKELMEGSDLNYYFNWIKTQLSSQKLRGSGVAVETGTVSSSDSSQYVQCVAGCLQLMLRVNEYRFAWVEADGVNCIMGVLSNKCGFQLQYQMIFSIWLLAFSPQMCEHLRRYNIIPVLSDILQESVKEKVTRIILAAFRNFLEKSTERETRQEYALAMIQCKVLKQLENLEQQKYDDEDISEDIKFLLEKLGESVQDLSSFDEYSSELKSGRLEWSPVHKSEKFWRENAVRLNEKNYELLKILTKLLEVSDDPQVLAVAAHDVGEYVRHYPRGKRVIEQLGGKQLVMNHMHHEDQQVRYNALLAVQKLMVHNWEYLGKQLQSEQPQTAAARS
UniProt P06576, whole entry, looked up: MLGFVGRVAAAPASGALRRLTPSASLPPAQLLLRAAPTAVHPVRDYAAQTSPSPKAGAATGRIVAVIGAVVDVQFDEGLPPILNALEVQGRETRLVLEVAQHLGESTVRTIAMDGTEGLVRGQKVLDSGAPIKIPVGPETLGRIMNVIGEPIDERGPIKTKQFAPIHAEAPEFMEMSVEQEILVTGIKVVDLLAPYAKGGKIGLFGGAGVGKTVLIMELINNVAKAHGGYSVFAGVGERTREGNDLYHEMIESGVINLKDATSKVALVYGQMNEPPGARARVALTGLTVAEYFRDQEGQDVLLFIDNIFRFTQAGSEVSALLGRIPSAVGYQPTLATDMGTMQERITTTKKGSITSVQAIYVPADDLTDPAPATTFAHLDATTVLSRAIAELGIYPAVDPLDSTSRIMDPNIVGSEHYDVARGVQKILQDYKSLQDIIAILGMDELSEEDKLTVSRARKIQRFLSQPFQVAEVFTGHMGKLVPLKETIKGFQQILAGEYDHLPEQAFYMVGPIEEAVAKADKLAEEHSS
UniProt Q676U5: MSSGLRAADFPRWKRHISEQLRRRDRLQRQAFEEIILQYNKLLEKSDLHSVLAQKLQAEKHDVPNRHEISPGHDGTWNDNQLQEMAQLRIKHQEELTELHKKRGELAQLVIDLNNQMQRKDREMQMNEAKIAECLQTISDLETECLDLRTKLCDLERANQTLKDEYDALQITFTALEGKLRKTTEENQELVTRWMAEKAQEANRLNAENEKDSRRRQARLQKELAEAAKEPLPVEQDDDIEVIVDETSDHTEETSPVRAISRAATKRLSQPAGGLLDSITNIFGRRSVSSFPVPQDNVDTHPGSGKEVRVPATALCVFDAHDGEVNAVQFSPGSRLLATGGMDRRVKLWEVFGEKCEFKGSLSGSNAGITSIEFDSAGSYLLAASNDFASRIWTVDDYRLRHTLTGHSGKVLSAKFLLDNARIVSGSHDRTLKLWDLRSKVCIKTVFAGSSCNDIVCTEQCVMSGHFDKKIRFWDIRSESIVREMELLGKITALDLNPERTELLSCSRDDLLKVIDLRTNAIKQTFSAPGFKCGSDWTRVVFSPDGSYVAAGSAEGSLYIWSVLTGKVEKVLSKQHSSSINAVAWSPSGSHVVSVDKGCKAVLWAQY
UniProt Q8N5M1: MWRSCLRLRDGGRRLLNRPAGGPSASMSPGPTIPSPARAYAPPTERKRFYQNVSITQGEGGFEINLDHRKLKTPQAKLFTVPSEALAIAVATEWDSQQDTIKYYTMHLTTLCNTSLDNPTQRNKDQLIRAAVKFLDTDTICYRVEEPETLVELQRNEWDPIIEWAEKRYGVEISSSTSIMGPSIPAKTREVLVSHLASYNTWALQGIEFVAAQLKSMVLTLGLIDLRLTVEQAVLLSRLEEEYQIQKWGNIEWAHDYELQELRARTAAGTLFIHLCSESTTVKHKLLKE

[1] = compound: C/C(=N\NC(=O)C1=CC(=CC=C1)S(=O)(=O)N2CCOCC2)/C3=C(C=CC(=C3)Cl)O
Method in brief: as §1

[2] = compound: C1=CC(=CC=C1C2=NC3=C(N2)C=C(C=C3)C(=O)N)OC4=CC=C(C=C4)Cl
Method in brief: as §1

[3] = compound: C1=CC2=C(C=CC(=C2)/C=C\3/C(=O)NC(=NCC4=CC=CS4)S3)N=C1
Method in brief: as §1

[4] = compound: C1=CC2=NC=CN=C2C=C1/C=C/3\C(=O)NC(=O)S3
Method in brief: as §1

[5] = compound: C1=CC=C(C=C1)C2=NC(=C(N2)C3=CC=NC=C3)C4=CC(=C(C=C4)Cl)O
Method in brief: as §1

[6] = compound: C1=CC=C2C(=C1)C3=NNC4=CC=CC(=C43)C2=O
Method in brief: as §1

[7] = compound: C1CCN(C1)C(=O)NC2=CC=CC(=C2)NC3=NC=C(C(=N3)NCCC4=CN=CN4)Br
Method in brief: as §1

[8] = compound: C1CN(CCC1(CC2=CC=C(C=C2)Cl)N)C3=NC=NC4=C3C=CN4
Method in brief: as §1

IRAK-1-4 Inhibitor I = compound: C1COCCN1CCN2C3=CC=CC=C3N=C2NC(=O)C4=CC(=CC=C4)[N+](=O)[O-] [IRAK-1-4 Inhibitor I]
Method in brief: as §1

ibrutinib = compound: C=CC(=O)N1CCC[C@@H](n2nc(-c3ccc(Oc4ccccc4)cc3)c3c(N)ncnc32)C1 [ibrutinib]
Method in brief: as §1

[9] = compound: CC(=O)c1cnc2ccc(-c3cc(Cl)c(O)c(Cl)c3)nc2c1N[C@H]1CC[C@H](CN(C)C)CC1
Method in brief: as §1

ralimetinib = compound: CC(C)(C)Cn1c(N)nc2ccc(-c3[nH]c(C(C)(C)C)nc3-c3ccc(F)cc3)nc21 [ralimetinib]
Method in brief: as §1

[10] = compound: CC(C)(O)CC(=O)NCCn1ccc2ncnc(Nc3ccc(Oc4cccc(C(F)(F)F)c4)c(Cl)c3)c21
Method in brief: as §1

[11] = compound: CC(C)C1=C2N=C(C=C(N2N=C1)NCC3=CC=CC=C3)NCCCCCCN
Method in brief: as §1

[12] = compound: CC1=C(C(CC(=O)N1)C2=CC=C(C=C2)C(F)(F)F)C(=O)NC3=C(C=C4C(=C3)C=NN4)F
Method in brief: as §1

[13] = compound: CC1=C(C2=C(C=C1)C(=O)C3=CC=CC=C3N2CCCN)C
Method in brief: as §1

[14] = compound: CC1=C(C=C(C=C1)NC(=O)C2=CC(=CC=C2)C(C)(C)C#N)NC3=CC4=C(C=C3)N=CN(C4=O)C
Method in brief: as §1

[15] = compound: CC1=C(C=C(C=C1)NC(=O)C2=CC(=CC=C2)N(C)C)NC(=O)C3=CC=C(C=C3)O
Method in brief: as §1

[16] = compound: CC1=CC=C(C=C1)SC2=C3C=C(SC3=CN=C2)C(=O)N
Method in brief: as §1

Measured: log2 fold change

ATAD3B (UniProt Q5T9A4)
inactive: erlotinib -0.016 | [1] 0.031 | [2] -0.111 | [3] 0.029 | [4] 0.019 | [5] -0.017 | [6] 0.096 | [7] 0.018 | [8] -0.009 | IRAK-1-4 Inhibitor I 0.032 | ibrutinib -0.054 | [9] 0.018 | ralimetinib -0.027 | [10] -0.069 | [11] -0.012 | [12] -0.026 | [13] -0.028 | [14] -0.03 | [15] 0.045 | [16] 0.015

ATL2 (UniProt Q8NHH9)
inactive: erlotinib -0.097 | [1] -0.007 | [2] 0.053 | [3] -0.028 | [4] 0.022 | [5] -0.051 | [6] 0.013 | [7] -0.018 | [8] -0.049 | IRAK-1-4 Inhibitor I 0.03 | ibrutinib 0.004 | [9] -0.021 | ralimetinib 0.009 | [10] -0.051 | [11] -0.116 | [12] -0.038 | [13] 0.01 | [14] -0.011 | [15] 0.045 | [16] -0.027

ATP5PD (UniProt O75947)
inactive: erlotinib 0.008 | [1] 0.035 | [2] 0 | [3] -0.012 | [4] 0.021 | [5] 0.006 | [6] 0 | [7] 0.048 | [8] 0.064 | IRAK-1-4 Inhibitor I 0.013 | ibrutinib 0.074 | [9] -0.017 | ralimetinib -0.045 | [10] -0.016 | [11] 0.021 | [12] -0.04 | [13] 0.013 | [14] 0.009 | [15] -0.028 | [16] -0.005

AXIN1 (UniProt O15169)
inactive: erlotinib 0.02 | [1] 0.029 | [2] -0.061 | [3] 0.042 | [4] -0.158 | [5] -0.012 | [6] 0.108 | [7] -0.021 | [8] -0.024 | IRAK-1-4 Inhibitor I 0.043 | ibrutinib 0.025 | [9] 0.003 | ralimetinib 0.019 | [10] 0.03 | [11] 0.117 | [12] 0.092 | [13] 0.145 | [14] 0.176 | [15] -0.095 | [16] 0.07

ATP5MPL (UniProt P56378)
inactive: erlotinib 0.012 | [1] -0.002 | [2] -0.01 | [3] 0.013 | [4] 0.022 | [5] -0.048 | [6] 0.09 | [7] -0.055 | [8] -0.032 | IRAK-1-4 Inhibitor I -0.031 | ibrutinib -0.001 | [9] -0.039 | ralimetinib 0.034 | [10] -0.01 | [11] -0.013 | [12] -0.065 | [13] 0.02 | [14] 0.07 | [15] 0.03 | [16] 0.038

ATP6V1G1 (UniProt O75348)
inactive: erlotinib -0.018 | [1] 0.01 | [2] 0.046 | [3] -0.025 | [4] -0.018 | [5] -0.011 | [6] 0.026 | [7] 0.022 | [8] -0.017 | IRAK-1-4 Inhibitor I -0.014 | ibrutinib -0.002 | [9] 0.013 | ralimetinib 0.008 | [10] -0.041 | [11] 0.012 | [12] -0.015 | [13] -0.018 | [14] 0.001 | [15] -0.063 | [16] -0.027

ATP6V0A2 (UniProt Q9Y487)
inactive: erlotinib 0.026 | [1] 0.027 | [2] 0.044 | [3] -0.006 | [4] 0.035 | [5] 0.004 | [6] -0.024 | [7] -0.012 | [8] 0 | IRAK-1-4 Inhibitor I 0.042 | ibrutinib 0.016 | [9] -0.017 | ralimetinib 0 | [10] -0.073 | [11] -0.077 | [12] 0.007 | [13] -0.014 | [14] 0.041 | [15] -0.032 | [16] 0.012

ATP6AP1 (UniProt Q15904)
inactive: erlotinib -0.01 | [1] -0.036 | [2] -0.017 | [3] 0.001 | [4] 0.037 | [5] -0.048 | [6] 0.074 | [7] -0.045 | [8] 0 | IRAK-1-4 Inhibitor I -0.041 | ibrutinib -0.014 | [9] -0.003 | ralimetinib 0.02 | [10] -0.048 | [11] 0.003 | [12] 0.042 | [13] 0.014 | [14] -0.034 | [15] 0.05 | [16] -0.02

B3GNT2 (UniProt Q9NY97)
inactive: erlotinib -0.169 | [1] -0.029 | [2] -0.028 | [3] 0.024 | [4] -0.042 | [5] 0.003 | [6] -0.048 | [7] 0.026 | [8] -0.023 | IRAK-1-4 Inhibitor I -0.049 | ibrutinib 0.021 | [9] 0.075 | ralimetinib -0.045 | [10] -0.07 | [11] -0.041 | [12] -0.017 | [13] -0.018 | [14] 0.088 | [15] -0.079 | [16] 0.021

ATXN2L isoform 3 (UniProt Q8WWM7)
inactive: erlotinib -0.009 | [1] -0.011 | [2] 0.054 | [3] -0.017 | [4] -0.008 | [5] -0.011 | [6] -0.018 | [7] 0.006 | [8] 0.009 | IRAK-1-4 Inhibitor I 0.005 | ibrutinib -0.019 | [9] 0 | ralimetinib 0.001 | [10] -0.02 | [11] 0.003 | [12] 0.008 | [13] 0.012 | [14] -0.042 | [15] 0.02 | [16] -0.021

ATG13 isoform 2 (UniProt O75143)
inactive: erlotinib 0.019 | [1] -0.055 | [2] -0.033 | [3] 0.021 | [4] -0.001 | [5] -0.004 | [6] 0.02 | [7] -0.031 | [8] 0.019 | IRAK-1-4 Inhibitor I 0.006 | ibrutinib 0.01 | [9] 0.011 | ralimetinib -0.003 | [10] -0.018 | [11] 0.004 | [12] 0 | [13] -0.006 | [14] 0.048 | [15] -0.024 | [16] 0.016

ATP13A3 (UniProt Q9H7F0)
inactive: erlotinib 0.071 | [1] 0.009 | [2] -0.067 | [3] 0.028 | [4] -0.07 | [5] -0.017 | [6] 0.02 | [7] -0.072 | [8] -0.027 | IRAK-1-4 Inhibitor I 0.025 | ibrutinib 0.059 | [9] -0.022 | ralimetinib -0.024 | [10] -0.12 | [11] -0.068 | [12] -0.08 | [13] -0.017 | [14] 0.043 | [15] 0.016 | [16] 0.016

ATP6V1H (UniProt Q9UI12)
inactive: erlotinib 0.01 | [1] -0.005 | [2] 0 | [3] -0.031 | [4] -0.009 | [5] 0.01 | [6] 0.006 | [7] -0.006 | [8] 0.022 | IRAK-1-4 Inhibitor I 0.014 | ibrutinib 0 | [9] -0.016 | ralimetinib -0.036 | [10] -0.034 | [11] -0.031 | [12] -0.004 | [13] -0.02 | [14] 0.003 | [15] 0.018 | [16] -0.008

ATP5F1B (UniProt P06576)
inactive: erlotinib -0.012 | [1] -0.024 | [2] 0.011 | [3] 0.003 | [4] -0.002 | [5] -0.003 | [6] 0.008 | [7] -0.001 | [8] -0.008 | IRAK-1-4 Inhibitor I 0.014 | ibrutinib 0.025 | [9] 0.009 | ralimetinib -0.001 | [10] -0.026 | [11] -0.011 | [12] -0.011 | [13] -0.029 | [14] -0.006 | [15] 0 | [16] -0.005

Looked up one by one from the list above (2):
ATP5PD (UniProt O75947)
inactive: erlotinib 0.008 | [1] 0.035 | [2] 0 | [3] -0.012 | [4] 0.021 | [5] 0.006 | [6] 0 | [7] 0.048 | [8] 0.064 | IRAK-1-4 Inhibitor I 0.013 | ibrutinib 0.074 | [9] -0.017 | ralimetinib -0.045 | [10] -0.016 | [11] 0.021 | [12] -0.04 | [13] 0.013 | [14] 0.009 | [15] -0.028 | [16] -0.005

ATP13A3 (UniProt Q9H7F0)
inactive: erlotinib 0.071 | [1] 0.009 | [2] -0.067 | [3] 0.028 | [4] -0.07 | [5] -0.017 | [6] 0.02 | [7] -0.072 | [8] -0.027 | IRAK-1-4 Inhibitor I 0.025 | ibrutinib 0.059 | [9] -0.022 | ralimetinib -0.024 | [10] -0.12 | [11] -0.068 | [12] -0.08 | [13] -0.017 | [14] 0.043 | [15] 0.016 | [16] 0.016

Continuation:

ATG16L1 (UniProt Q676U5)
inactive: erlotinib -0.006 | [1] -0.123 | [2] -0.074 | [3] -0.043 | [4] -0.013 | [5] 0.023 | [6] 0.067 | [7] 0.012 | [8] -0.012 | IRAK-1-4 Inhibitor I 0.009 | ibrutinib 0.043 | [9] 0.015 | ralimetinib 0.013 | [10] -0.035 | [11] 0.002 | [12] -0.01 | [13] -0.005 | [14] 0.001 | [15] -0.031 | [16] 0.006

ATPAF2 (UniProt Q8N5M1)
inactive: erlotinib 0.012 | [1] -0.005 | [2] -0.015 | [3] -0.014 | [4] -0.006 | [5] 0.007 | [6] -0.058 | [7] -0.031 | [8] 0.054 | IRAK-1-4 Inhibitor I -0.007 | ibrutinib 0.002 | [9] -0.005 | ralimetinib -0.032 | [10] -0.075 | [11] -0.051 | [12] 0.019 | [13] -0.008 | [14] 0.082 | [15] -0.013 | [16] 0.003

— the supplement of paper PMC10849652
